No constants are given. Whether binding was seen depends on the method and setting. Binding calls can cover weak binding; strength is not graded here.

In the experiment the target is cynomolgus monkey PCSK9, V5-6xHIS tagged (cynomolgus monkey). The experiment in a line: KinExA solution equilibrium titration; title: 10 or 100pM 16F12 + (0.05pM ~ 5nM) cPCSK9; free antibody measured. On the technique in general: A kinetic exclusion assay measures how much of one partner remains free in solution.

B1: 16F12, anti-PCSK9 huIgG4 (antibody, V domains shown)
VH: QVHLVESGGGVVQPGRSLRLSCAASGFTFNSFGMHWVRQAPGKGLEWVALIWSDGSDEYYADSVKGRFTISRDNSKNTLYLQMNSLRAEDTAVYYCARAIAALYYYYGMDVWGQGTTVTVSS
VL: QSVLTQPPSVSAAPGQKVTISCSGSSSNIGNNFVSWYQQLPGTAPKLLIYDYNKRPSGIPDRFSGSKSGTSATLGITGLQTGDEADYYCGTWDSSLSAYVFGTGTRVTVLQ
Take B1: the binding result was “binds”.

(Values after patent publication US20130064825A1.)
